Data reported in paper PMC10701957.
No constants are given. Whether binding was seen depends on the method and setting. In cells and extracts the contact can be indirect. Here binding means that the protein was enriched with, or labelled near, the bait; the list need not be complete.

By UniProt entry, the sequences of proteins in these tests, tags left out.
UniProt P12814: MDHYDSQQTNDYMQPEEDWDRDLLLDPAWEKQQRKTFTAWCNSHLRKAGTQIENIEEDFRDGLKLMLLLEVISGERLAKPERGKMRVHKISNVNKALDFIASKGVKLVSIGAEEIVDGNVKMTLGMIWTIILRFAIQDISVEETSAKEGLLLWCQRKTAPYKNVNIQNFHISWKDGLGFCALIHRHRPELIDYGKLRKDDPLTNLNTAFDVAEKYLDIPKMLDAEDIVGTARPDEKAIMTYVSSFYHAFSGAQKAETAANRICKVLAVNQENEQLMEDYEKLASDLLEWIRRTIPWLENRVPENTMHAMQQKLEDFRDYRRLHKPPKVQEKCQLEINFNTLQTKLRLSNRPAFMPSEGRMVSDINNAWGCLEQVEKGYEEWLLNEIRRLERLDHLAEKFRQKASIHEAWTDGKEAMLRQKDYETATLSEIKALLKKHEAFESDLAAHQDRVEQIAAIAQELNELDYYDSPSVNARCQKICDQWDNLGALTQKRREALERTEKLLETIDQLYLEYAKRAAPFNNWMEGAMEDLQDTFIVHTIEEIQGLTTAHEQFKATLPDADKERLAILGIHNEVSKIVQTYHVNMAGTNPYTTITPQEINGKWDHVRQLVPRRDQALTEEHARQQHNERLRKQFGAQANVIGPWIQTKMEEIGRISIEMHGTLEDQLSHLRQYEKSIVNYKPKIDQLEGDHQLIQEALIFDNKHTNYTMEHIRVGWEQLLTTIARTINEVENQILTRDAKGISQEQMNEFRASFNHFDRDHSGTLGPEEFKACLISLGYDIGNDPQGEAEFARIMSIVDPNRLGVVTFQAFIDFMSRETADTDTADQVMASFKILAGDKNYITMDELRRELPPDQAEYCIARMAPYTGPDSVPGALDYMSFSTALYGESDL
UniProt P35579: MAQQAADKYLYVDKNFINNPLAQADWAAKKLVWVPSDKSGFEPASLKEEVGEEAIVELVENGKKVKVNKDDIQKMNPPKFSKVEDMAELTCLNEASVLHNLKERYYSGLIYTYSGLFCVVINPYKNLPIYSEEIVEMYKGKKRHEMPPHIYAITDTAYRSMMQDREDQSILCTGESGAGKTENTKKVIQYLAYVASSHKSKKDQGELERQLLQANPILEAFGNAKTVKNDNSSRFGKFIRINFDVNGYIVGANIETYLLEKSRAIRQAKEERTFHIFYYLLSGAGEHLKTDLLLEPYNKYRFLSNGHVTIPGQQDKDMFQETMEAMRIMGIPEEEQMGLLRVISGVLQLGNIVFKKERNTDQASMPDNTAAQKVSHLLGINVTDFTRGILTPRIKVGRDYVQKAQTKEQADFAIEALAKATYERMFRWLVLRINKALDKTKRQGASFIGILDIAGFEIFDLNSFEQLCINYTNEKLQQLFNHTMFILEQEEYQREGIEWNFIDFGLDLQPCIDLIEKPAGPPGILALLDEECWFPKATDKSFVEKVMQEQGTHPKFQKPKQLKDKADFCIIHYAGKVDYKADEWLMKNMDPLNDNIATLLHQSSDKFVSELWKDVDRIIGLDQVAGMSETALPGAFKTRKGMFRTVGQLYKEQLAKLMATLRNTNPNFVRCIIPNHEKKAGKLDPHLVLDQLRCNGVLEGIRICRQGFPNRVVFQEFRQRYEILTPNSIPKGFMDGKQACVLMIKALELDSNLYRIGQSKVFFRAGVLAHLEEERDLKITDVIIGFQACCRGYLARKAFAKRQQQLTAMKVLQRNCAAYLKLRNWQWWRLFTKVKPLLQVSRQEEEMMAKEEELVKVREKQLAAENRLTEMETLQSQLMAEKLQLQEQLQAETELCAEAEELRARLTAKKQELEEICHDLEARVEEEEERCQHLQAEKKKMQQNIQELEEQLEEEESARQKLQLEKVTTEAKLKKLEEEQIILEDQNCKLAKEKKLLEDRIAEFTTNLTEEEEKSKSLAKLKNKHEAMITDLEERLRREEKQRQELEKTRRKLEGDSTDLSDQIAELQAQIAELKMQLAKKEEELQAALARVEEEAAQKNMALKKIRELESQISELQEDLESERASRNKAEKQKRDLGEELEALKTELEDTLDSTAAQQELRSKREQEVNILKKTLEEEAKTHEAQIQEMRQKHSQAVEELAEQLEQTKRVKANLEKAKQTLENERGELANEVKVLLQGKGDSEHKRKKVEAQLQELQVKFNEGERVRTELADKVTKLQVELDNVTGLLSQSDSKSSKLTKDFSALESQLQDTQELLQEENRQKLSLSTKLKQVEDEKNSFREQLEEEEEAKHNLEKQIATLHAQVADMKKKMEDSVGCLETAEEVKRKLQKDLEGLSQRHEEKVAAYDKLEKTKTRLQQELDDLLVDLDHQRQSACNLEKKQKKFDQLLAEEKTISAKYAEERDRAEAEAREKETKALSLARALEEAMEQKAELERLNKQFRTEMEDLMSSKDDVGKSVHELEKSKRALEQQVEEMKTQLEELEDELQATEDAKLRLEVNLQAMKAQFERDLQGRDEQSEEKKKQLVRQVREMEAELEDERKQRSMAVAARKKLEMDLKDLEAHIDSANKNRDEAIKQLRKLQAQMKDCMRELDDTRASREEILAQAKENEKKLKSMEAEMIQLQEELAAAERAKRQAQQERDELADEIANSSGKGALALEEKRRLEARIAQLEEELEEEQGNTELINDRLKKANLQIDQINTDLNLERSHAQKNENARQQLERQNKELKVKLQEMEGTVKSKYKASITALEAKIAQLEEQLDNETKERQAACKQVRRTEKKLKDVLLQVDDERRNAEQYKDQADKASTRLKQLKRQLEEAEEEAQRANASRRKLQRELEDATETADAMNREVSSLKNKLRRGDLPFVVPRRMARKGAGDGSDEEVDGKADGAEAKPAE

Target: alpha-actinin 1 (ACTN1) (human (endogenous in SCC-1cisR)) (UniProt P12814)
Test: affinity purification with mass spectrometry; IP of ACTN1; co-precipitated proteins separated by SDS-PAGE, candidate bands digested with trypsin, LC-MS/MS

binding: binds
Substance: myosin heavy chain 9 (MYH9) (from UniProt P35579 1-1960)
